No constants are given. Whether binding was seen depends on the method and setting. In cells and extracts the contact can be indirect. Some entries that bind do so weakly or less than the wild type. For some assays here: Tags and fused reporters may be left off the sequences shown.
Assays:
[1] = biological target: T1, endogenous p130Cas (human (endogenous in HUVEC)) (UniProt P56945); assay: co-IP; endogenous p130Cas immunoprecipitated with anti-p130Cas antibody from HUVEC lysates, with or without VEGF (also after siNRP1 or siScr); immunoblot for the partners
T1 sequence: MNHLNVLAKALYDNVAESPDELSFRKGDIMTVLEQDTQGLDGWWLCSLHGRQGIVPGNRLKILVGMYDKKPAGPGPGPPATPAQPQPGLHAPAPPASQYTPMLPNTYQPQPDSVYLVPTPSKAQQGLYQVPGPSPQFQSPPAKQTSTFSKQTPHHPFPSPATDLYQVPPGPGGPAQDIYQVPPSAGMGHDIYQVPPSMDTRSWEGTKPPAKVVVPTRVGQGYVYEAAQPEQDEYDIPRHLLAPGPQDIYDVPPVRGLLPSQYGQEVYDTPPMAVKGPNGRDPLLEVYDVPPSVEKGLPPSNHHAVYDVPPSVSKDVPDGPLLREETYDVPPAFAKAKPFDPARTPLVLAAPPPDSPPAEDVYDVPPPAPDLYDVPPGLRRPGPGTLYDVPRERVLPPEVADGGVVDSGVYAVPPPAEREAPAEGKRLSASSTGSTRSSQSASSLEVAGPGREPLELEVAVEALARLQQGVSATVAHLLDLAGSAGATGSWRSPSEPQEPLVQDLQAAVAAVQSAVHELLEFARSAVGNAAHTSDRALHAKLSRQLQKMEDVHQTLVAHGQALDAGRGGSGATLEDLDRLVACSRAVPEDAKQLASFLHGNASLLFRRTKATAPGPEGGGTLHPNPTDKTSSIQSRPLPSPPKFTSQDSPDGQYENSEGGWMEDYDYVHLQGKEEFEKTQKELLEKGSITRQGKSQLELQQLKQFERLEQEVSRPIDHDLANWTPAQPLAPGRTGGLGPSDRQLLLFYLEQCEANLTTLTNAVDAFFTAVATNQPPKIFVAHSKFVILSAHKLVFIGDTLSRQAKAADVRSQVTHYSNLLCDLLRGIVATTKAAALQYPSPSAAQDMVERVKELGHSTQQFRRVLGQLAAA

Sequences of proteins named here, by UniProt entry; tags and fusion partners are left off.
UniProt P46940: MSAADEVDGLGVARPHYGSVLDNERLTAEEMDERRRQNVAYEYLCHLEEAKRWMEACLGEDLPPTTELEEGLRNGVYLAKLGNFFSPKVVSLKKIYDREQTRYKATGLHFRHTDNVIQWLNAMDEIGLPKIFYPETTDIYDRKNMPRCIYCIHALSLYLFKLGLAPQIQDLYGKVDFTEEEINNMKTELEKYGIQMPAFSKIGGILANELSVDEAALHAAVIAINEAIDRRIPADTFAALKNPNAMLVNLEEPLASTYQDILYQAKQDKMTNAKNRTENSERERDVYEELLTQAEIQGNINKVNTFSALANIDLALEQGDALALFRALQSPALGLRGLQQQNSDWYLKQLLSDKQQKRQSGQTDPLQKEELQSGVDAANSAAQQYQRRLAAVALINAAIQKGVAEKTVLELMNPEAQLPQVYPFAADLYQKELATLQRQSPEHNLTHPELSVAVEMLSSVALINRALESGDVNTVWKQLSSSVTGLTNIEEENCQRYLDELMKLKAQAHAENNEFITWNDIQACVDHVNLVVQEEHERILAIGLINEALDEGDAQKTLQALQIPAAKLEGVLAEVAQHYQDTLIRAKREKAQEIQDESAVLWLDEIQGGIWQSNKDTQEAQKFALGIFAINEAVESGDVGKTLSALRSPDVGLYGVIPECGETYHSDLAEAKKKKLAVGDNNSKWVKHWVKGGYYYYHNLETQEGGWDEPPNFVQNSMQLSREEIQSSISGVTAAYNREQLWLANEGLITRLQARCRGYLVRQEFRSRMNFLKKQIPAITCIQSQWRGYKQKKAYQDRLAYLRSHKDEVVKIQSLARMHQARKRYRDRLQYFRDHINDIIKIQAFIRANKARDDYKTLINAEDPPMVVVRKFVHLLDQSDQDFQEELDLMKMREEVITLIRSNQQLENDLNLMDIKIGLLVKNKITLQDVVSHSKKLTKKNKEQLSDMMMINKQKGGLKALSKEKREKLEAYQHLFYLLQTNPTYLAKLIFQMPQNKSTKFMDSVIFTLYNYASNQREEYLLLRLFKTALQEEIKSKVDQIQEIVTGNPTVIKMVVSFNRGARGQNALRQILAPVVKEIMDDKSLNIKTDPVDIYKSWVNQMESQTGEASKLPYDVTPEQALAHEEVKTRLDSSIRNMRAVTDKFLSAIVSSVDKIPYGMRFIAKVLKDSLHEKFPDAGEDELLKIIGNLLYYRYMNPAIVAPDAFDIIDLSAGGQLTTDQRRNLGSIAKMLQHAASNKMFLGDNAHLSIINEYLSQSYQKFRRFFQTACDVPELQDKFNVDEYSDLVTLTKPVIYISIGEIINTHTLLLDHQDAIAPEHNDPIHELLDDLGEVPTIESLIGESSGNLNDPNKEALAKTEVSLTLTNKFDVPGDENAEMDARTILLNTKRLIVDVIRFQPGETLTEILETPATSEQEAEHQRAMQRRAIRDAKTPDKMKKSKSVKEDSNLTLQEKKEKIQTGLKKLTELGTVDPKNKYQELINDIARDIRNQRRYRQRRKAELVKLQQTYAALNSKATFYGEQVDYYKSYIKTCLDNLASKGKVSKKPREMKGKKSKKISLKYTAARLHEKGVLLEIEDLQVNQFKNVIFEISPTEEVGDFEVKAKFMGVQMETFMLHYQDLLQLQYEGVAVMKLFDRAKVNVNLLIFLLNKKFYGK
UniProt Q9Y5S2: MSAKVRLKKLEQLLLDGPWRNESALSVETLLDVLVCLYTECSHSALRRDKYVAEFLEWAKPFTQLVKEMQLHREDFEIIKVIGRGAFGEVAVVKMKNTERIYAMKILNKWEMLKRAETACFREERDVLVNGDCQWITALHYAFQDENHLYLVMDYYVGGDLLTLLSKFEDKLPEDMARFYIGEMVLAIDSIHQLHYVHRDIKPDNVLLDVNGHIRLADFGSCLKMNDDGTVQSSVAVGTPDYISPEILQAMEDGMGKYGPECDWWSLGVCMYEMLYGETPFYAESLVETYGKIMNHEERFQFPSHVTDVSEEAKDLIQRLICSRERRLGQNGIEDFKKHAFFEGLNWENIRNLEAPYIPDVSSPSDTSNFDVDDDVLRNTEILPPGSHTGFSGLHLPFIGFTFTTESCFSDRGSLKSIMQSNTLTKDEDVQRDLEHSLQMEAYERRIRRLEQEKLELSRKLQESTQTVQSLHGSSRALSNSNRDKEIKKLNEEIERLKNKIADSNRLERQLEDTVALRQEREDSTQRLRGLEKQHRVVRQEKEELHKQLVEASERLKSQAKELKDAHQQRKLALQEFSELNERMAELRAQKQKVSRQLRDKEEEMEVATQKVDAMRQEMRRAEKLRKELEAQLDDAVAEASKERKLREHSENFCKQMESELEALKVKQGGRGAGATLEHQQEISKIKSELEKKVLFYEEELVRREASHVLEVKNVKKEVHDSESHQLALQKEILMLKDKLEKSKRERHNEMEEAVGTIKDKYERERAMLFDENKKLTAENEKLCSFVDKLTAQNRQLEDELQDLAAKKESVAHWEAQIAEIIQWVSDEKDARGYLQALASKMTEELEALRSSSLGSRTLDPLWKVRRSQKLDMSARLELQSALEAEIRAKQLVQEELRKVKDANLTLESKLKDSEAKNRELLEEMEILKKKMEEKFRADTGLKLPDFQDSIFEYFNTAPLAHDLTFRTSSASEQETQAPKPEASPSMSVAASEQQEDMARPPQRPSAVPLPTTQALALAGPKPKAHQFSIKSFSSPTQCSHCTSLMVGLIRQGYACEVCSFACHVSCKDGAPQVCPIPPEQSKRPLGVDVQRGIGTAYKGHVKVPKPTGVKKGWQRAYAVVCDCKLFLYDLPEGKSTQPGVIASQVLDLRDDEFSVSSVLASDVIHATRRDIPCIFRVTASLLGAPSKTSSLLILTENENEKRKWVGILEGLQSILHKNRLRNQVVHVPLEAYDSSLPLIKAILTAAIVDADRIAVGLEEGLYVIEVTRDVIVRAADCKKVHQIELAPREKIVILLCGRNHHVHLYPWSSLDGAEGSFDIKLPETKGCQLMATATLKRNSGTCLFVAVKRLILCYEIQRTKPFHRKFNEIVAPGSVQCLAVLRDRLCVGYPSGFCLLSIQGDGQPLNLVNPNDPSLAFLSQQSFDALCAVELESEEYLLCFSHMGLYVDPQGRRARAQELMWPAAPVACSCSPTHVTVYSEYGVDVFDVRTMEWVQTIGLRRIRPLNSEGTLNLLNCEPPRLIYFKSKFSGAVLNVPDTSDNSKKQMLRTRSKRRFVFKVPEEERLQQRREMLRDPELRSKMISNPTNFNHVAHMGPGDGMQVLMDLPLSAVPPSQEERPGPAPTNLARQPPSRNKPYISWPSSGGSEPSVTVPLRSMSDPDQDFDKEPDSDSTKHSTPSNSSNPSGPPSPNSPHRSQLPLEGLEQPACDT
UniProt P07737: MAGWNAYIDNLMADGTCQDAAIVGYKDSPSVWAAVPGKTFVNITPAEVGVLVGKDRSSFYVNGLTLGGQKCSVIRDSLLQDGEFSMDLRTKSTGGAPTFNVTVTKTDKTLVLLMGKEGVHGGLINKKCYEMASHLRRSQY

[2] = biological target: T2, wild-type (WT) p130Cas, overexpressed from adenovirus (Ad.p130Cas) (UniProt P56945); assay: co-IP; HUVECs infected with Ad.p130CasWT or Ad.p130Cas15F for 48 h, with or without 25 ng/ml VEGF for 30 min; immunoprecipitated with anti-p130Cas antibody, immunoblotted for p130Cas and IQGAP1
T2 sequence: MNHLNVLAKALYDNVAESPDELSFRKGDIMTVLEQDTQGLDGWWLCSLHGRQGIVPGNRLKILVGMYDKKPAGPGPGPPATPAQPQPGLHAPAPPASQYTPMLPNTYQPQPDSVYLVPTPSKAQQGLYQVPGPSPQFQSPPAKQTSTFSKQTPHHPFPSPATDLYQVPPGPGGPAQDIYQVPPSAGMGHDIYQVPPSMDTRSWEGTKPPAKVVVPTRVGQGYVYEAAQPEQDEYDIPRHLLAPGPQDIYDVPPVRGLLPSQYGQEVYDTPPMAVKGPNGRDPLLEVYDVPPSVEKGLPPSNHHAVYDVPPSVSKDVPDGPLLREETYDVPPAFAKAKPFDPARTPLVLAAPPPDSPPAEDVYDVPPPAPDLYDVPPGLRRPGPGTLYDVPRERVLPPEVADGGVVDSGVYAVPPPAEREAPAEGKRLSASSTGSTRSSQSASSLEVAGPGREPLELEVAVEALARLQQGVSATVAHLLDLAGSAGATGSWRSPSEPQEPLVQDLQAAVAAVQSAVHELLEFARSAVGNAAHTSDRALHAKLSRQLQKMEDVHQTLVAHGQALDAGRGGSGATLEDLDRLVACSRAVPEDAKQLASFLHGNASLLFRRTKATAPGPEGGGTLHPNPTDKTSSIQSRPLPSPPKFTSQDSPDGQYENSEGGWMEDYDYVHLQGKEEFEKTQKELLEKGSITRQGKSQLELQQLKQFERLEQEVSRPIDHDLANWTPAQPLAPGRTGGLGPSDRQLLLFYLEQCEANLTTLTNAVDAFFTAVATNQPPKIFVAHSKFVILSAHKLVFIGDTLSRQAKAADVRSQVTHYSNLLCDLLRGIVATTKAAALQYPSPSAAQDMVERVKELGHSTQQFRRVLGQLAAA

[3] = biological target: recombinant full-length IQGAP1 protein fused to GST (UniProt P46940); assay: pull-down; recombinant GST-IQGAP1 (full length) incubated with HUVEC lysates, cells with or without VEGF treatment; p130Cas detected; only the target purified

CDC42 binding protein kinase beta (CDC42BPB or myotonic dystrophy-related CDC42-binding kinase (MRCKβ)) (from UniProt Q9Y5S2 1-1711)
binding [1]: binds

IQGAP1, GTPase-binding scaffold protein, endogenous (from UniProt P46940 1-1657)
binding [1]: binds
binding [2]: binds

Profilin-1 (from UniProt P07737 1-140)
binding [1]: binds

B1: endogenous p130Cas (protein, UniProt P56945 1-870)
chain: MNHLNVLAKALYDNVAESPDELSFRKGDIMTVLEQDTQGLDGWWLCSLHGRQGIVPGNRLKILVGMYDKKPAGPGPGPPATPAQPQPGLHAPAPPASQYTPMLPNTYQPQPDSVYLVPTPSKAQQGLYQVPGPSPQFQSPPAKQTSTFSKQTPHHPFPSPATDLYQVPPGPGGPAQDIYQVPPSAGMGHDIYQVPPSMDTRSWEGTKPPAKVVVPTRVGQGYVYEAAQPEQDEYDIPRHLLAPGPQDIYDVPPVRGLLPSQYGQEVYDTPPMAVKGPNGRDPLLEVYDVPPSVEKGLPPSNHHAVYDVPPSVSKDVPDGPLLREETYDVPPAFAKAKPFDPARTPLVLAAPPPDSPPAEDVYDVPPPAPDLYDVPPGLRRPGPGTLYDVPRERVLPPEVADGGVVDSGVYAVPPPAEREAPAEGKRLSASSTGSTRSSQSASSLEVAGPGREPLELEVAVEALARLQQGVSATVAHLLDLAGSAGATGSWRSPSEPQEPLVQDLQAAVAAVQSAVHELLEFARSAVGNAAHTSDRALHAKLSRQLQKMEDVHQTLVAHGQALDAGRGGSGATLEDLDRLVACSRAVPEDAKQLASFLHGNASLLFRRTKATAPGPEGGGTLHPNPTDKTSSIQSRPLPSPPKFTSQDSPDGQYENSEGGWMEDYDYVHLQGKEEFEKTQKELLEKGSITRQGKSQLELQQLKQFERLEQEVSRPIDHDLANWTPAQPLAPGRTGGLGPSDRQLLLFYLEQCEANLTTLTNAVDAFFTAVATNQPPKIFVAHSKFVILSAHKLVFIGDTLSRQAKAADVRSQVTHYSNLLCDLLRGIVATTKAAALQYPSPSAAQDMVERVKELGHSTQQFRRVLGQLAAA
binding [3]: binds
